# The list shows a part of the results.
# Tests used:
# Test in all cases: glycan array binding signal (z-score within array); higher = stronger binding
# Conditions in all cases: glycan notation: IUPAC condensed, linker removed
# [1] = molecular target: GlcNAc(b1-3)Gal(b1-4)GlcNAc(b1-3)Gal(b1-4)GlcNAc(b1-2)[GlcNAc(b1-3)Gal(b1-4)GlcNAc(b1-3)Gal(b1-4)GlcNAc(b1-6)]Man(a1-6)[GlcNAc(b1-3)Gal(b1-4)GlcNAc(b1-3)Gal(b1-4)GlcNAc(b1-2)Man(a1-3)]Man(b1-4)GlcNAc(b1-4)[Fuc(a1-6)]GlcNAc
# Summary of the method: (§1)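 Glycan array binding is given as a within-array Z-score, which can be read as non-binding when negative. The arrays, 3228 of them, came from the Consortium for Functional Glycomics database and were retained only where the protein sequence was available. Z-scores were averaged across arrays of the same protein sequence at different concentrations or buffers and across linkers.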
# [2] = molecular target: GlcNAc(b1-3)Gal(b1-4)GlcNAc(b1-3)Gal(b1-4)GlcNAc(b1-3)Gal(b1-4)GlcNAc(b1-2)Man(a1-3)[GlcNAc(b1-3)Gal(b1-4)GlcNAc(b1-3)Gal(b1-4)GlcNAc(b1-3)Gal(b1-4)GlcNAc(b1-2)Man(a1-6)]Man(b1-4)GlcNAc(b1-4)GlcNAc
# Summary of the method: as §1
# [3] = molecular target: GlcNAc(b1-3)Gal(b1-4)GlcNAc(b1-3)Gal(b1-4)GlcNAc(b1-3)Gal(b1-4)GlcNAc(b1-2)Man(a1-3)[GlcNAc(b1-3)Gal(b1-4)GlcNAc(b1-3)Gal(b1-4)GlcNAc(b1-3)Gal(b1-4)GlcNAc(b1-2)Man(a1-6)]Man(b1-4)GlcNAc(b1-4)[Fuc(a1-6)]GlcNAc
# Summary of the method: as §1
# [4] = molecular target: GlcNAc(b1-3)Gal(b1-4)GlcNAc(b1-3)Gal(b1-4)GlcNAc(b1-3)Gal(b1-4)GlcNAc(b1-2)[GlcNAc(b1-3)Gal(b1-4)GlcNAc(b1-3)Gal(b1-4)GlcNAc(b1-3)Gal(b1-4)GlcNAc(b1-6)]Man(a1-6)[GlcNAc(b1-3)Gal(b1-4)GlcNAc(b1-3)Gal(b1-4)GlcNAc(b1-3)Gal(b1-4)GlcNAc(b1-2)Man(a1-3)]Man(b1-4)GlcNAc(b1-4)[Fuc(a1-6)]GlcNAc
# Summary of the method: as §1
# [5] = molecular target: GlcNAc(b1-3)Gal(b1-4)GlcNAc(b1-3)Gal(b1-4)GlcNAc(b1-3)Gal(b1-4)GlcNAc(b1-3)Gal(b1-4)GlcNAc(b1-2)Man(a1-3)[GlcNAc(b1-3)Gal(b1-4)GlcNAc(b1-3)Gal(b1-4)GlcNAc(b1-3)Gal(b1-4)GlcNAc(b1-3)Gal(b1-4)GlcNAc(b1-2)Man(a1-6)]Man(b1-4)GlcNAc(b1-4)GlcNAc
# Summary of the method: as §1
# [6] = molecular target: GlcNAc(b1-3)Gal(b1-4)GlcNAc(b1-3)Gal(b1-4)GlcNAc(b1-3)Gal(b1-4)GlcNAc(b1-3)Gal(b1-4)GlcNAc(b1-2)Man(a1-3)[GlcNAc(b1-3)Gal(b1-4)GlcNAc(b1-3)Gal(b1-4)GlcNAc(b1-3)Gal(b1-4)GlcNAc(b1-3)Gal(b1-4)GlcNAc(b1-2)Man(a1-6)]Man(b1-4)GlcNAc(b1-4)[Fuc(a1-6)]GlcNAc
# Summary of the method: as §1
# [7] = molecular target: GlcNAc(b1-3)Gal(b1-4)GlcNAc(b1-3)Gal(b1-4)GlcNAc(b1-3)Gal(b1-4)GlcNAc(b1-3)Gal(b1-4)GlcNAc(b1-2)[GlcNAc(b1-3)Gal(b1-4)GlcNAc(b1-3)Gal(b1-4)GlcNAc(b1-3)Gal(b1-4)GlcNAc(b1-3)Gal(b1-4)GlcNAc(b1-6)]Man(a1-6)[GlcNAc(b1-3)Gal(b1-4)GlcNAc(b1-3)Gal(b1-4)GlcNAc(b1-3)Gal(b1-4)GlcNAc(b1-3)Gal(b1-4)GlcNAc(b1-2)Man(a1-3)]Man(b1-4)GlcNAc(b1-4)[Fuc(a1-6)]GlcNAc
# Summary of the method: as §1
# [8] = molecular target: GlcNAc(b1-3)Gal(b1-4)GlcNAc(b1-3)Gal(b1-4)GlcNAc(b1-3)GalNAc
# Summary of the method: as §1
# [9] = molecular target: GlcNAc(b1-3)Gal(b1-4)GlcNAc(b1-3)GalNAc
# Summary of the method: as §1
# [10] = molecular target: GlcNAc(b1-3)Gal(b1-4)GlcNAc(b1-3)[GlcNAc(b1-3)Gal(b1-4)GlcNAc(b1-3)]GalNAc
# Summary of the method: as §1
# [11] = molecular target: GlcNAc(b1-3)Gal(b1-4)GlcNAc(b1-6)[Gal(b1-3)]GalNAc
# Summary of the method: as §1
# [12] = molecular target: GlcNAc(b1-3)Gal(b1-4)GlcNAc(b1-6)[GlcNAc(b1-3)Gal(b1-3)]GalNAc
# Summary of the method: as §1
# [13] = molecular target: GlcNAc(b1-3)Gal(b1-4)GlcNAc(b1-6)[GlcNAc(b1-3)]Gal(b1-4)GlcNAc
# Summary of the method: as §1
# [14] = molecular target: GlcNAc(b1-3)GalNAc
# Summary of the method: as §1
# [15] = molecular target: GlcNAc(b1-3)Man
# Summary of the method: as §1
# [16] = molecular target: GlcNAc(b1-3)[GlcNAc(b1-4)][GlcNAc(b1-6)]GlcNAc
# Summary of the method: as §1
# [17] = molecular target: GlcNAc(b1-3)[GlcNAc(b1-6)]Gal(b1-4)GlcNAc
# Summary of the method: as §1
# [18] = molecular target: GlcNAc(b1-3)[GlcNAc(b1-6)]GalNAc
# Summary of the method: as §1
# [19] = molecular target: GlcNAc(b1-4)Gal(b1-4)GlcNAc
# Summary of the method: as §1
# [20] = molecular target: GlcNAc(b1-4)GlcNAc
# Summary of the method: as §1
# [21] = molecular target: GlcNAc(b1-4)GlcNAc(b1-4)GlcNAc
# Summary of the method: as §1
# [22] = molecular target: GlcNAc(b1-4)GlcNAc(b1-4)GlcNAc(b1-4)GlcNAc(b1-4)GlcNAc
# Summary of the method: as §1
# [23] = molecular target: GlcNAc(b1-4)GlcNAc(b1-4)GlcNAc(b1-4)GlcNAc(b1-4)GlcNAc(b1-4)GlcNAc
# Summary of the method: as §1
# [24] = molecular target: GlcNAc(b1-4)[GlcNAc(b1-6)]GalNAc
# Summary of the method: as §1
# [25] = molecular target: GlcNAc(b1-6)Gal(b1-4)GlcNAc
# Summary of the method: as §1
# [26] = molecular target: GlcNAc(b1-6)GalNAc
# Summary of the method: as §1
# [27] = molecular target: GlcNAc6S(b1-3)Gal(b1-4)GlcNAc
# Summary of the method: as §1
# [28] = molecular target: Kdn(a2-3)Gal(b1-3)GalNAc
# Summary of the method: as §1
# [29] = molecular target: Kdn(a2-3)Gal(b1-3)GlcNAc
# Summary of the method: as §1
# [30] = molecular target: Kdn(a2-3)Gal(b1-4)Glc
# Summary of the method: as §1
# [31] = molecular target: Kdn(a2-3)Gal(b1-4)GlcNAc
# Summary of the method: as §1
# [32] = molecular target: Kdn(a2-3)Gal(b1-4)[Fuc(a1-3)]GlcNAc
# Summary of the method: as §1
# [33] = molecular target: Kdn(a2-6)Gal(b1-4)GlcNAc
# Summary of the method: as §1
# [34] = molecular target: Man(a1-2)Man(a1-2)Man(a1-3)Man
# Summary of the method: as §1
# [35] = molecular target: Man(a1-2)Man(a1-2)Man(a1-6)[Man(a1-3)]Man
# Summary of the method: as §1
# [36] = molecular target: Man(a1-2)Man(a1-3)Man
# Summary of the method: as §1
# [37] = molecular target: Man(a1-2)Man(a1-3)[Man(a1-2)Man(a1-6)]Man
# Summary of the method: as §1
# [38] = molecular target: Man(a1-2)Man(a1-3)[Man(a1-2)Man(a1-6)]Man(a1-6)[Man(a1-2)Man(a1-2)Man(a1-3)]Man
# Summary of the method: as §1
binder,measurement,setting,value
Epf (Streptococcus pyogenes) (protein) GDHGPEFNGVMVVKAAEAEELPDDLMNFKGTWEVSADGSSGRFFSKGATDSYVFHLIPAKDVKKPGWREHNEVKDSYIKIDKQSIAARYKTSTTAPYSVAFKVNTKSLIKDHDYKITFEQGQIASGITVDYRIGSAFNKTTDDSFKISDESKYASNVKIEGEEQGFKQREQGDKTISFRTLKEGPMSLVLLSKVEKKPQGDLDVEFKNLKIIDVTNPSQLDKGVAYVGNKNVQLTLKSDDGRTNFEGDEISLFNSRGELLQTVTVTKDQQNPISITLSEDQAKSLKNKEKLKVSIKQKQSKKTSKDFFFEVGIDPKVEAKQKEKLLELDKVKKQIEDSINGDAWLPEKPVDLQGDHGLSAWSHPQFEK,glycan array binding signal (z-score),[1],0.082
same,glycan array binding signal (z-score),[2],-0.168
same,glycan array binding signal (z-score),[3],2.18
same,glycan array binding signal (z-score),[4],2.85
same,glycan array binding signal (z-score),[5],0.234
same,glycan array binding signal (z-score),[6],-0.75
same,glycan array binding signal (z-score),[7],-0.117
same,glycan array binding signal (z-score),[8],-0.246
same,glycan array binding signal (z-score),[9],-0.778
same,glycan array binding signal (z-score),[10],0.25
same,glycan array binding signal (z-score),[11],-0.831
same,glycan array binding signal (z-score),[12],0.445
same,glycan array binding signal (z-score),[13],0.29
same,glycan array binding signal (z-score),[14],-0.705
same,glycan array binding signal (z-score),[15],0.194
same,glycan array binding signal (z-score),[16],-0.367
same,glycan array binding signal (z-score),[17],2.09
same,glycan array binding signal (z-score),[18],0.066
same,glycan array binding signal (z-score),[19],-0.031
same,glycan array binding signal (z-score),[20],-1.32
same,glycan array binding signal (z-score),[21],-0.513
same,glycan array binding signal (z-score),[22],-0.915
same,glycan array binding signal (z-score),[23],-1.1
same,glycan array binding signal (z-score),[24],3.11
same,glycan array binding signal (z-score),[25],-0.433
same,glycan array binding signal (z-score),[26],1.21
same,glycan array binding signal (z-score),[27],1.98
same,glycan array binding signal (z-score),[28],0.837
same,glycan array binding signal (z-score),[29],0.078
same,glycan array binding signal (z-score),[30],0.077
same,glycan array binding signal (z-score),[31],0.508
same,glycan array binding signal (z-score),[32],-0.049
same,glycan array binding signal (z-score),[33],0.586
same,glycan array binding signal (z-score),[34],-0.882
same,glycan array binding signal (z-score),[35],1.01
same,glycan array binding signal (z-score),[36],-0.554
same,glycan array binding signal (z-score),[37],-0.611
same,glycan array binding signal (z-score),[38],-0.339

# Retrieved one by one from above:
binder,measurement,setting,value
Epf (Streptococcus pyogenes) (protein) GDHGPEFNGVMVVKAAEAEELPDDLMNFKGTWEVSADGSSGRFFSKGATDSYVFHLIPAKDVKKPGWREHNEVKDSYIKIDKQSIAARYKTSTTAPYSVAFKVNTKSLIKDHDYKITFEQGQIASGITVDYRIGSAFNKTTDDSFKISDESKYASNVKIEGEEQGFKQREQGDKTISFRTLKEGPMSLVLLSKVEKKPQGDLDVEFKNLKIIDVTNPSQLDKGVAYVGNKNVQLTLKSDDGRTNFEGDEISLFNSRGELLQTVTVTKDQQNPISITLSEDQAKSLKNKEKLKVSIKQKQSKKTSKDFFFEVGIDPKVEAKQKEKLLELDKVKKQIEDSINGDAWLPEKPVDLQGDHGLSAWSHPQFEK,glycan array binding signal (z-score),[25],-0.433
same,glycan array binding signal (z-score),[1],0.082
